The assay deals with T1, ubiquitin-specific peptidase 39 (USP39) (human (endogenous in NCI-H1975)) (UniProt Q53GS9).
T1 sequence: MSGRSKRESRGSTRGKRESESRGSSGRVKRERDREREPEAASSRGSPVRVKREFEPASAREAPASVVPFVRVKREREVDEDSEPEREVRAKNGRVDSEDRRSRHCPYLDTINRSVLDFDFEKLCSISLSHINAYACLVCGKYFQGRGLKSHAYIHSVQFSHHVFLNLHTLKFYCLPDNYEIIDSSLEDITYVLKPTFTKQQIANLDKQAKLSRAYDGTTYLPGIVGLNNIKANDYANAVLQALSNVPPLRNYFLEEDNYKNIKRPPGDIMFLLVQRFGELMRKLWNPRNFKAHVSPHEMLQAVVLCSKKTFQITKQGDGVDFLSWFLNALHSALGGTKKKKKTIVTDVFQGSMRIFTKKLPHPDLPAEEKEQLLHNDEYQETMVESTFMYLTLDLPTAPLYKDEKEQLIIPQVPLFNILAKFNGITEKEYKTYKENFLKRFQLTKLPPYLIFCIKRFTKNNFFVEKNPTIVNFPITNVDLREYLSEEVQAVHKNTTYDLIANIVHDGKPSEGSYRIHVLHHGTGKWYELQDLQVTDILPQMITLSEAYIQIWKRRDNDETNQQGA
As to the kind of experiment: affinity purification with mass spectrometry; endogenous USP39 immunoprecipitated from NCI-H1975 lysate (1% digitonin, 150 mM NaCl, 25 mM Tris, pH 7.5) with USP39 antibody on Dynabeads Protein A, overnight; beads washed four times with PBS; on-bead trypsin digest, LC-MS/MS; isotype antibody control.

No constants are given. Whether binding was seen depends on the method and setting. In cells and extracts the contact can be indirect. Here binding means that the protein was enriched with, or labelled near, the bait; the list need not be complete.

B1: dihydrolipoamide S-acetyltransferase (DLAT) (enzyme, UniProt P10515 87-647)
chain: SLPPHQKVPLPSLSPTMQAGTIARWEKKEGDKINEGDLIAEVETDKATVGFESLEECYMAKILVAEGTRDVPIGAIICITVGKPEDIEAFKNYTLDSSAAPTPQAAPAPTPAATASPPTPSAQAPGSSYPPHMQVLLPALSPTMTMGTVQRWEKKVGEKLSEGDLLAEIETDKATIGFEVQEEGYLAKILVPEGTRDVPLGTPLCIIVEKEADISAFADYRPTEVTDLKPQVPPPTPPPVAAVPPTPQPLAPTPSAPCPATPAGPKGRVFVSPLAKKLAVEKGIDLTQVKGTGPDGRITKKDIDSFVPSKVAPAPAAVVPPTGPGMAPVPTGVFTDIPISNIRRVIAQRLMQSKQTIPHYYLSIDVNMGEVLLVRKELNKILEGRSKISVNDFIIKASALACLKVPEANSSWMDTVIRQNHVVDVSVAVSTPAGLITPIVFNAHIKGVETIANDVVSLATKAREGKLQPHEFQGGTFTISNLGMFGIKNFSAIINPPQACILAIGASEDKLVPADNEKGFDVASMMSVTLSCDHRVVDGAVGAQWLAEFRKYLEKPITMLL
In the case of B1, the binding entry is given as “binds”.

The values above are taken from article PMC11655846.
